Among all 31,000 sequences or so, about 1,400 (4.5%) were called active.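 The calls were made as follows: active = median seed-adjusted z-score above 1 or below -1; inactive = the rest.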 The list shows a part of the results.
Experiment: Novel Modifiers of Survival Motor Neuron (SMN) Protein: Gene Identification via Genome-wide siRNA Screen;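 also: luminescence tracks full-length SMN protein made from the SMN2 reporter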
Conditions: HEK293T SMN2-luciferase reporter, siRNA knockdown, 72 h; actives lie on both sides
Method in brief: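 Each of three siRNAs per gene is reverse-transfected (1 pmol) into reporter HEK293T cells whose luciferase output tracks SMN protein level. After 72 h culture, ONE-Glo luminescence is control-normalized, log10-transformed and MAD-standardized; Common Seed Analysis deprioritizes seed-driven hits.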

Sequence	median seed-adjusted z-score
GUGACACGCAUGAUCCUCATT against GALR2	inactive: -0.0832
CGUUAUUGAUCCGAAUGAATT against LRRC4C	inactive: -0.122
CACCUCACCUUACAUCAAATT against ZNF133	inactive: -0.199
CAGUGUUAUUAGGUAUAAATT against UCP1	inactive: -0.0744
AAGUGAUUAUUACCCUGAATT against CXCL11	inactive: -0.135
CUGCCGGAAUGGUUCUUUATT against GPR151	inactive: -0.263
GAAUACUUCAAAUUCGAAUTT against LEPR	inactive: -0.184
UCACAGAGUCGUUCACGGATT against RAB40B	inactive: -0.31
GAACAUCAGGUAUAGAACATT against SULT1B1	inactive: -0.115
GAGUGAGAAUUACUAUGAATT against PCDHGC4	inactive: 0.301
GGCUGACCUGUACCACUUUTT against SH3BP1	inactive: -0.225
CAAAACCGAUGGUCAAGUUTT against VCAN	inactive: 0.0927
GCACUGGAGAUAGACCCGATT against KRT82	inactive: 0.129
CACCUCACAUGAUAAGAGATT against RAPGEF4	inactive: -0.197
UCACUGAAAUGAAACUGGUTT against ACBD4	inactive: -0.363
GCUGCUUUCUGGACCCGAATT against PRSS36	inactive: 0.589
CAUGCAACAUAACCUGAUATT against BRCA1	inactive: -0.0302
AGAUCCACCUCAAGCAAAATT against EGR3	inactive: -0.232
GGAAUAUUCAUGUCAAUCATT against LAMA3	inactive: 0.534
CUCCGUAUCAUAGAUGUAATT against PCDHB3	inactive: 0.304
GGAUGAUAUUAACAGGUCATT against USP8	inactive: 0.743
CCACACUUUUGGUCUUUAATT against PGDS	inactive: 0.02

Sequence	median seed-adjusted z-score
GCAGCGAGUCAGUAACUUUTT against SUPT4H1	active: -1.01
GGUGGUACACCUAACCCUATT against INADL	inactive: 0.53
GCGCUAUAGUGUCCGAGCUTT against TIRAP	inactive: -0.431
UCACAUAUCGAAUUACCAATT against MUPCDH	inactive: -0.329
GCUCAUCAACGACAAGGUUTT against NPTX2	inactive: 0.0558
GGCGAAAACGAAGGAAUCUTT against SLC39A5	inactive: -0.311
CCAAGGUCCUGAGGUCUAATT against SIN3A	inactive: -0.384
GGCGCUACCUGUAUCAAUGTT against BGLAP	inactive: -0.488
GCCUAAUCAUUCUUGUUAATT against ELTD1	inactive: 0.387
GCAGUACGUGGGUCCCUAUTT against TPO	inactive: 0.894
GGCUCGUGGAGGUAACAUUTT against VCP	inactive: -0.808
CUUUUAAUCAGCAAUCAAATT against ZNF600	inactive: 0.252
CGCCUUUGAUAAGUAUAGATT against C1GALT1C1	inactive: 0
CUCUUAUCAUUGAUGGUUUTT against PIAS3	inactive: -0.216
CAAUGAUCAGCUCAAUACATT against SPG3A	inactive: 0.203
GUGGGCGUGCUAUAAGUGATT against GPR78	inactive: 0.607
GGCUUGAUCAGGUCCAUAATT against BCO2	inactive: -0.183
GGAUCUCCAUCCACAUACATT against MYLK3	inactive: 0.316
GGCCGUGCAUUAUCCGCAATT against LOC100137047-PLA2G4B	inactive: -0.022
AGGGCUUCUUGAAUCUCUATT against GSTO2	inactive: 0.142
CACUGUAUGUCAUUCCCAATT against ACPL2	inactive: 0.0392
CCCUCAAUAUUUUACCUGATT against P2RY1	inactive: -0.844

Some of the entries above, reformatted:
Sequence | median seed-adjusted z-score
GCAGCGAGUCAGUAACUUUTT against SUPT4H1 | active: -1.01
GGUGGUACACCUAACCCUATT against INADL | inactive: 0.53
GCGCUAUAGUGUCCGAGCUTT against TIRAP | inactive: -0.431
UCACAUAUCGAAUUACCAATT against MUPCDH | inactive: -0.329
GGCGAAAACGAAGGAAUCUTT against SLC39A5 | inactive: -0.311
CCAAGGUCCUGAGGUCUAATT against SIN3A | inactive: -0.384
GGCGCUACCUGUAUCAAUGTT against BGLAP | inactive: -0.488
GCAGUACGUGGGUCCCUAUTT against TPO | inactive: 0.894
GGCUCGUGGAGGUAACAUUTT against VCP | inactive: -0.808
CUUUUAAUCAGCAAUCAAATT against ZNF600 | inactive: 0.252
CGCCUUUGAUAAGUAUAGATT against C1GALT1C1 | inactive: 0
CAAUGAUCAGCUCAAUACATT against SPG3A | inactive: 0.203
GUGGGCGUGCUAUAAGUGATT against GPR78 | inactive: 0.607
GGCUUGAUCAGGUCCAUAATT against BCO2 | inactive: -0.183
GGAUCUCCAUCCACAUACATT against MYLK3 | inactive: 0.316
GGCCGUGCAUUAUCCGCAATT against LOC100137047-PLA2G4B | inactive: -0.022
AGGGCUUCUUGAAUCUCUATT against GSTO2 | inactive: 0.142
CACUGUAUGUCAUUCCCAATT against ACPL2 | inactive: 0.0392
CCCUCAAUAUUUUACCUGATT against P2RY1 | inactive: -0.844

More entries follow.

Sequence	median seed-adjusted z-score
GAUCGUGUCUCAAUCCAUUTT against TINAGL1	inactive: -0.059
GAACUUCACUUAUUACUGATT against PCDHA1	inactive: -0.013
CCCAUCCUGUUGUGACCAATT against LIMD2	inactive: 0.418
GCUUUGCAGUUACACGUGUTT against CTCF	inactive: -0.0821
CGAUGAGUUUGGGACUUCATT against ZFP36L2	inactive: -0.0485
GGUUCUCCCUAGUCAAUGATT against CDH16	inactive: -0.209
CGGAAGCUAUGACUUAUGATT against SELE	inactive: 0.469
GAGCAUGGUUCAGAACAUATT against CA1	inactive: 0.262
GCAGAUGCUUUAGGACCUATT against UMPS	inactive: 0.191
ACCAGAAACUAGAACGUGATT against CAMK2G	inactive: -0.107
CAGCGAGUGUAGGAAAGCATT against ZNF84	inactive: -0.246
CAAACAUCUAUGCAGCAAATT against MS4A8B	inactive: 0.207
GGUCAGCGGAUUAAACAAATT against HNRPK	inactive: 0.296
GAAGCAGAUUUUAGAUGAATT against NF2	inactive: -0.543
GAAUUUAAGCUGCAGCAGATT against RARRES2	inactive: -0.125
GGCUCCUUAUUAUAACUAUTT against CTBS	inactive: 0.0442
CCGUGUUCAUCUCCAGUUATT against SPNS1	inactive: -0.0598
CAUUUGCGGUUCGGACAAATT against CACNB2	inactive: 0
CACCAUUCCAAAUAACUUATT against PCBP1	inactive: 0.124
GGCACACGCUCUUGGAAUATT against IL4I1	inactive: -0.441
GGCUCAAUUCAUCCCUUAATT against ZNF607	inactive: 0.857
UCAACUGCCUUAUAACAUUTT against CCRL1	inactive: -0.347

Sequence	median seed-adjusted z-score
CCGAUGCCCUAUUACCACATT against CUBN	inactive: 0.0558
GCGUUAUCCUCACCUUCAATT against G6PD	inactive: 0.593
GAACUCUCGUGUUACUCAATT against ANGPTL1	inactive: -0.556
GGUUGUCGUGGUUCCAUCATT against HSD17B8	inactive: 0.411
GGCGAUUCAACAUUAACGATT against TFE3	inactive: -0.0442
AGUGUGAUGUGACAGCCCATT against MATK	inactive: -0.754
CUAAAAGUCUUGCUCCAAUTT against BDKRB1	inactive: 0.448
CGGUACAGGUGGUCAUCAATT against DDX49	inactive: 0.0816
GCCGCGAAAUCACCAAGAUTT against NDN	inactive: -0.146
GGGUUGAAGGUGAUCAUCATT against IMMP2L	inactive: 0.919
CCAUCUAUCAGAUUGAGCATT against TP63	inactive: -0.129
CAAACCCUGCGGCACACUATT against ADAMTS10	inactive: 0.856
CACCUGCCGUGGUCUAUAUTT against HTRA2	inactive: -0.503
GCCUUUACCCAAAAAUCAATT against ZNF182	inactive: 0
GGAACGAGAUUGUCAGAUUTT against POLR2B	active: -4.81
CAAGCACUCUGGUUUAACATT against BAZ2A	inactive: 0.73
GCAUAUUCUUUGAGUUAUATT against RHAG	inactive: -0.212
CCAAAGCCGCUACCAAGUUTT against PCDH21	inactive: -0.528
CGGUCAAGUUCGACAAGCATT against CHD5	inactive: -0.195
GGGUGGAAGCGGUAACAAATT against NOS2A	inactive: 0.419
GUAUUAUACUCGGAUAACATT against PSMD12	inactive: 0.956
CAAGGAGUUUUACCCAGUATT against CYP4Z1	inactive: -0.139

Sequence	median seed-adjusted z-score
GAUGAGUCAAGGACCUACATT against FAM53B	inactive: -0.00535
AGAUGAUCGUGAGUCAGCUTT against LITAF	inactive: 0.0771
AGAUCAAGGUACCCUUUGATT against ATHL1	inactive: 0
GGCUGUGAAUAAUAUAGCUTT against BTF3L4	inactive: 0.143
GCUUCAUUCUGAUGUAUGATT against RAB3B	inactive: -0.705
AGAUACUUACAUAGUUUUUTT against NACA	inactive: 0.117
GUGUCUUACUGGUGGAUGATT against PTGER4	inactive: -0.289
GUUCAUGAAAGAUCGGUUATT against CDC14A	inactive: 0.117
GGAAUGCUGCAUCAAUAGATT against BTBD1	inactive: 0.0192
GCAAAGGCACUGAAUCGAATT against MAP4K5	inactive: -0.309
GGAAUUAUUACAAGGUAAATT against EIF3E	inactive: 0.549
CGUGGGCUCUAUCUACUAUTT against PUF60	active: 2.26
CCAUAGCUGAUGUUAUUCUTT against NDUFS1	inactive: -0.217
GGCACAAUUUCAACUCCAUTT against GPR35	active: -1.46
CACCAGUCAUCCAACUUGATT against RANBP9	inactive: -0.467
CUGUUGCACUUCACAUUUUTT against TRIP13	active: 1
GAAGGAUCACUCUCAGAUATT against LRRC47	inactive: 0.00856
AGAUCAUCGAGACAGAUUUTT against SLC39A3	inactive: 0.0298
GGACGUGCUUCAUUAACAATT against ALDH9A1	inactive: -0.297

Source: PubChem BioAssay AID1347426 (Functional Genomics Laboratory (NCATS/FGL), 2020)
